# ± gives the standard deviation of the averaged measurements. Only a part is listed here, and it is no random draw.
# How the values were obtained:
# Assay in all cases: NP40-soluble protein abundance relative to vehicle (solubility fold change) (ratio); higher = more soluble protein in presence of AMP-PNP
# CENPB = target: T1, CENPB (UniProt P07199)
# T1 sequence (whole entry): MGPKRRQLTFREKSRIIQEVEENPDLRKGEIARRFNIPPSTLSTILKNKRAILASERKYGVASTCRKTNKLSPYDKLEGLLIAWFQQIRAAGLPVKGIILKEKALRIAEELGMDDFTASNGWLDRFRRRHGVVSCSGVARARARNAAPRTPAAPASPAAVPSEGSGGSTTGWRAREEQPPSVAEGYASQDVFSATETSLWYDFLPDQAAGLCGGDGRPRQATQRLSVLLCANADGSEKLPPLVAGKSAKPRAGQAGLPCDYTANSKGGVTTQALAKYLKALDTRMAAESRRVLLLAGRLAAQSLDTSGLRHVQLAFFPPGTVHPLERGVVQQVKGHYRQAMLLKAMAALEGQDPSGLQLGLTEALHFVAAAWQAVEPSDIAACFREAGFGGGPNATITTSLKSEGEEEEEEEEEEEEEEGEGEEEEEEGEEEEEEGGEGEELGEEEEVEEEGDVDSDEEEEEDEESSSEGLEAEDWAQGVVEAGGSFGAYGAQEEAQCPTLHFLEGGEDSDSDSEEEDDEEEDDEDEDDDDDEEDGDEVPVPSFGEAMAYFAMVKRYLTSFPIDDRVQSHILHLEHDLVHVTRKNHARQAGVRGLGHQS
# In short: (§1)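 Eight concentrations, 0.1 to 10 mM, were tested on Jurkat crude lysate for 10 min at room temperature and then 3 min at 37 °C, in three independent experiments. The lysate was solubilised with 0.8% NP40 and benzonase, ultracentrifuged, and the supernatant TMT-labelled for LC-MS/MS. Each value is the fold change against the detergent-processed vehicle in its own replicate, from vsn-normalised intensities.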
# CSTB = target: T2, CSTB (UniProt P04080)
# T2 sequence (whole entry): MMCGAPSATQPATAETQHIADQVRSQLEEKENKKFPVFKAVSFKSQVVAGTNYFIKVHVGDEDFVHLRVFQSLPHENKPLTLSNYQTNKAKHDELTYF
# In short: as §1
# CYBA = target: T3, CYBA (UniProt P13498)
# T3 sequence (whole entry): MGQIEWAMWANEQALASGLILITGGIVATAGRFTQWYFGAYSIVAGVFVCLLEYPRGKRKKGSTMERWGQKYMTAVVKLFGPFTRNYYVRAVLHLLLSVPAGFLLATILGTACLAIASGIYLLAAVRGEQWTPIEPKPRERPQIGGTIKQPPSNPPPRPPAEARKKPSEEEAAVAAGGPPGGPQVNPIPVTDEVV
# In short: as §1
# GLA = target: T4, GLA (UniProt P06280)
# T4 sequence (whole entry): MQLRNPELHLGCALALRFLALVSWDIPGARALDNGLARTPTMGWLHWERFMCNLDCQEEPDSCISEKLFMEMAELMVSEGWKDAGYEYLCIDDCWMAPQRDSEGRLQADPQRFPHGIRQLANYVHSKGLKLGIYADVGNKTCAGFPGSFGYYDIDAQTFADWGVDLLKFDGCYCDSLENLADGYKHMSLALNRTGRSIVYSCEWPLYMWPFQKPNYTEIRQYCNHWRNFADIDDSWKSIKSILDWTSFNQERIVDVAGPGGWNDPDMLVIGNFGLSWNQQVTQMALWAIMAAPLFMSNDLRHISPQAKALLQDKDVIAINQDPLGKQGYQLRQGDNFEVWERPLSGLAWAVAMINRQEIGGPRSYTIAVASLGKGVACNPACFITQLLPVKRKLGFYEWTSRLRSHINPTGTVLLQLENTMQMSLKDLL
# In short: as §1
# PTTG1 = target: T5, PTTG1 (UniProt O95997)
# T5 sequence (whole entry): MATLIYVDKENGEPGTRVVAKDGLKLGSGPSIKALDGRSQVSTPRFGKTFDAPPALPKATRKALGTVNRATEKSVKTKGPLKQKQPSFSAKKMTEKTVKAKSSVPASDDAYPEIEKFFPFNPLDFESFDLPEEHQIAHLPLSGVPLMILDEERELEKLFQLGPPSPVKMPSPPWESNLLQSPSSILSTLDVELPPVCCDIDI
# In short: as §1
# UniProt O95822-2|O95822 = target: T6, UniProt O95822-2|O95822
# T6 sequence (whole entry): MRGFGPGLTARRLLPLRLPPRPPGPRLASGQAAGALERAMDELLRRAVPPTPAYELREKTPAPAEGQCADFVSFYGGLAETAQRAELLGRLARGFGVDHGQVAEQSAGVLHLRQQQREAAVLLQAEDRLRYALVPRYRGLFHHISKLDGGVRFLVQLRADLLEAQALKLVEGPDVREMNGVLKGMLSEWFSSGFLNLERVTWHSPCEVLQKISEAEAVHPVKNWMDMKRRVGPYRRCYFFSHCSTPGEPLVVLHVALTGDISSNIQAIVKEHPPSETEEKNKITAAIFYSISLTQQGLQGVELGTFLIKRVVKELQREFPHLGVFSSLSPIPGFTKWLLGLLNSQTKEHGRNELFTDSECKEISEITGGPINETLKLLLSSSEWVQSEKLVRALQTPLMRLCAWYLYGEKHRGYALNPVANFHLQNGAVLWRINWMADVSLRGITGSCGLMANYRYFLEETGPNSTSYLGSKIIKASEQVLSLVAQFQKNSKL
# In short: as §1
# [1] = target: T7, UniProt P04083 and related entries
# T7 sequence (whole entry): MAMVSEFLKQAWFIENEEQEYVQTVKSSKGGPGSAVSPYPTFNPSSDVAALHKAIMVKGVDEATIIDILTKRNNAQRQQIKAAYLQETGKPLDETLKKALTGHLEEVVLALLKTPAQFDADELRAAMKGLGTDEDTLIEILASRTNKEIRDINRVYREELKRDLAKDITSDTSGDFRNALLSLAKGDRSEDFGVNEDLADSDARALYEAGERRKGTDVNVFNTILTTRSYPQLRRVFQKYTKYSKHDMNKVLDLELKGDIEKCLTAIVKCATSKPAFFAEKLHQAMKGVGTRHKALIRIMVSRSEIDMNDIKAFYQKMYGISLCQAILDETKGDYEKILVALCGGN
# In short: as §1
# [2] = target: T8, UniProt P04150 and related entries
# T8 sequence (whole entry): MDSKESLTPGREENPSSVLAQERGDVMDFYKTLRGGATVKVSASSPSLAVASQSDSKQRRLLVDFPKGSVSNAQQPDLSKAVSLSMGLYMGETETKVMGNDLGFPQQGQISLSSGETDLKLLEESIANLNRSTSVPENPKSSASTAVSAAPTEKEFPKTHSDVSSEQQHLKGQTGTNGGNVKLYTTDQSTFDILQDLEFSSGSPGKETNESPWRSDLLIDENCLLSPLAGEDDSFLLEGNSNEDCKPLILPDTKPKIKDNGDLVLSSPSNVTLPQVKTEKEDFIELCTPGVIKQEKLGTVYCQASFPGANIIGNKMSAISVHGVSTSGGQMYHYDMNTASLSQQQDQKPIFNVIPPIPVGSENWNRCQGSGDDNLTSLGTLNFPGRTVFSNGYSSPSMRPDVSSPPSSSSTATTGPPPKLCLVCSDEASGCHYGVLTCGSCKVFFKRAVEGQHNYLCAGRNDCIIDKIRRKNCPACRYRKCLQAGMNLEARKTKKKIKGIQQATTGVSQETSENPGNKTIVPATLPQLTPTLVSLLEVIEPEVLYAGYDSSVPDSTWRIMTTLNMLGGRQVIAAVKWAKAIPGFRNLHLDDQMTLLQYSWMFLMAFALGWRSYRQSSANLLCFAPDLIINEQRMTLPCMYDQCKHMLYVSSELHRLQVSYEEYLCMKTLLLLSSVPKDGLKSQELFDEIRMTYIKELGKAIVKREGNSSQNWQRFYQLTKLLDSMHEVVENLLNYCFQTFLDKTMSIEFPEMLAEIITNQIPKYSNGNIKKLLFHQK
# In short: as §1
# [3] = target: T9, UniProt P06737 and related entries
# T9 sequence (whole entry): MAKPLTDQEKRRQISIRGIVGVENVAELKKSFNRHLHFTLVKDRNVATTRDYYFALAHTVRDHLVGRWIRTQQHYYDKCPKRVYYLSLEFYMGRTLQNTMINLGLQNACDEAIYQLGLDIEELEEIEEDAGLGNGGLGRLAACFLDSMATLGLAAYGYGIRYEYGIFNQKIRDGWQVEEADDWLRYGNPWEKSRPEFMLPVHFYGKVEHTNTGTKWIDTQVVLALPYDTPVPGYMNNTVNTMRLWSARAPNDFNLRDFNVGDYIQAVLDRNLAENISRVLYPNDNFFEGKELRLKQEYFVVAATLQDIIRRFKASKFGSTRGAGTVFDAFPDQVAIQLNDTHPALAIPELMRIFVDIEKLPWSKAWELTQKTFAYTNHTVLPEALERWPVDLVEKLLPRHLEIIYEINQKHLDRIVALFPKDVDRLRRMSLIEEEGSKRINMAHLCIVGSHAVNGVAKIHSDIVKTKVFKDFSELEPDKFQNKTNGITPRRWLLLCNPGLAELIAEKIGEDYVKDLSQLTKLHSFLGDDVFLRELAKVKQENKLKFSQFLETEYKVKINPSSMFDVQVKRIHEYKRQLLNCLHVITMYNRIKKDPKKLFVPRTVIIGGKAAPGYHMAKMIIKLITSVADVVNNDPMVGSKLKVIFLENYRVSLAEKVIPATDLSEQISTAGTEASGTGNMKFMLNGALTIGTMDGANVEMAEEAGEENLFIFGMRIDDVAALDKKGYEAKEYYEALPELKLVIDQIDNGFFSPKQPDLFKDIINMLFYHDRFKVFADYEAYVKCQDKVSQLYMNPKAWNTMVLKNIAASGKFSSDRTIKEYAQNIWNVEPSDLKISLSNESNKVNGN
# In short: as §1
smiles,measurement,setting,value
Nc1ncnc2c1ncn2[C@@H]1O[C@H](COP(=O)(O)OP(=O)(O)NP(=O)(O)O)[C@@H](O)[C@H]1O [adenylyl imidodiphosphate],NP40-soluble protein abundance,CENPB; concentration: 1mM,0.9903 ± 0.0031
same,NP40-soluble protein abundance,CENPB; concentration: 2mM,1 ± 0.02
same,NP40-soluble protein abundance,CENPB; concentration: 4mM,0.9993 ± 0.0066
same,NP40-soluble protein abundance,CENPB; concentration: 6mM,1.01 ± 0.036
same,NP40-soluble protein abundance,CENPB; concentration: 8mM,0.989 ± 0.034
same,NP40-soluble protein abundance,CENPB; concentration: 10mM,1.04 ± 0.045
same,NP40-soluble protein abundance,CSTB; concentration: 1mM,0.95 ± 0.029
same,NP40-soluble protein abundance,CSTB; concentration: 2mM,1.03 ± 0.095
same,NP40-soluble protein abundance,CSTB; concentration: 4mM,0.953 ± 0.046
same,NP40-soluble protein abundance,CSTB; concentration: 6mM,1.02 ± 0.057
same,NP40-soluble protein abundance,CSTB; concentration: 8mM,1 ± 0.062
same,NP40-soluble protein abundance,CSTB; concentration: 10mM,1.01 ± 0.12
same,NP40-soluble protein abundance,CYBA; concentration: 1mM,1.06 ± 0.027
same,NP40-soluble protein abundance,CYBA; concentration: 2mM,1.09 ± 0.024
same,NP40-soluble protein abundance,CYBA; concentration: 4mM,1.03 ± 0.018
same,NP40-soluble protein abundance,CYBA; concentration: 6mM,1.07 ± 0.091
same,NP40-soluble protein abundance,CYBA; concentration: 8mM,1.05 ± 0.1
same,NP40-soluble protein abundance,CYBA; concentration: 10mM,1.04 ± 0.058
same,NP40-soluble protein abundance,GLA; concentration: 1mM,1.02 ± 0.018
same,NP40-soluble protein abundance,GLA; concentration: 2mM,1.03 ± 0.055
same,NP40-soluble protein abundance,GLA; concentration: 4mM,1.05 ± 0.011
same,NP40-soluble protein abundance,GLA; concentration: 6mM,1.05 ± 0.068
same,NP40-soluble protein abundance,GLA; concentration: 8mM,1.06 ± 0.038
same,NP40-soluble protein abundance,GLA; concentration: 10mM,1.08 ± 0.05
same,NP40-soluble protein abundance,PTTG1; concentration: 1mM,0.9917 ± 0.006
same,NP40-soluble protein abundance,PTTG1; concentration: 2mM,1.03 ± 0.034
same,NP40-soluble protein abundance,PTTG1; concentration: 4mM,1 ± 0.024
same,NP40-soluble protein abundance,PTTG1; concentration: 6mM,0.9705 ± 0.007
same,NP40-soluble protein abundance,PTTG1; concentration: 8mM,0.97414 ± 0.00045
same,NP40-soluble protein abundance,PTTG1; concentration: 10mM,0.973 ± 0.0024
same,NP40-soluble protein abundance,UniProt O95822-2|O95822; concentration: 1mM,1.02 ± 0.1
same,NP40-soluble protein abundance,UniProt O95822-2|O95822; concentration: 2mM,0.993 ± 0.073
same,NP40-soluble protein abundance,UniProt O95822-2|O95822; concentration: 4mM,0.997 ± 0.045
same,NP40-soluble protein abundance,UniProt O95822-2|O95822; concentration: 6mM,0.969 ± 0.062
same,NP40-soluble protein abundance,UniProt O95822-2|O95822; concentration: 8mM,0.971 ± 0.056
same,NP40-soluble protein abundance,UniProt O95822-2|O95822; concentration: 10mM,0.966 ± 0.049
same,NP40-soluble protein abundance,[1]; concentration: 1mM,1.01 ± 0.039
same,NP40-soluble protein abundance,[1]; concentration: 2mM,1.04 ± 0.059
same,NP40-soluble protein abundance,[1]; concentration: 4mM,1 ± 0.041
same,NP40-soluble protein abundance,[1]; concentration: 6mM,0.967 ± 0.064
same,NP40-soluble protein abundance,[1]; concentration: 8mM,0.957 ± 0.073
same,NP40-soluble protein abundance,[1]; concentration: 10mM,0.927 ± 0.13
same,NP40-soluble protein abundance,[2]; concentration: 1mM,0.992 ± 0.021
same,NP40-soluble protein abundance,[2]; concentration: 2mM,1.01 ± 0.046
same,NP40-soluble protein abundance,[2]; concentration: 4mM,0.963 ± 0.024
same,NP40-soluble protein abundance,[2]; concentration: 6mM,0.959 ± 0.027
same,NP40-soluble protein abundance,[2]; concentration: 8mM,0.946 ± 0.03
same,NP40-soluble protein abundance,[2]; concentration: 10mM,0.919 ± 0.024
same,NP40-soluble protein abundance,[3]; concentration: 1mM,1.02 ± 0.019
same,NP40-soluble protein abundance,[3]; concentration: 2mM,1 ± 0.074
same,NP40-soluble protein abundance,[3]; concentration: 4mM,1.02 ± 0.017
same,NP40-soluble protein abundance,[3]; concentration: 6mM,0.987 ± 0.018
same,NP40-soluble protein abundance,[3]; concentration: 8mM,1 ± 0.019
same,NP40-soluble protein abundance,[3]; concentration: 10mM,0.998 ± 0.034

# — the supplement of paper PMC6411743
